The assay has as its target T1, Acid sphingomyelinase (human (endogenous in naive CD4+ T cells from blood)) (UniProt P17405).
T1 sequence: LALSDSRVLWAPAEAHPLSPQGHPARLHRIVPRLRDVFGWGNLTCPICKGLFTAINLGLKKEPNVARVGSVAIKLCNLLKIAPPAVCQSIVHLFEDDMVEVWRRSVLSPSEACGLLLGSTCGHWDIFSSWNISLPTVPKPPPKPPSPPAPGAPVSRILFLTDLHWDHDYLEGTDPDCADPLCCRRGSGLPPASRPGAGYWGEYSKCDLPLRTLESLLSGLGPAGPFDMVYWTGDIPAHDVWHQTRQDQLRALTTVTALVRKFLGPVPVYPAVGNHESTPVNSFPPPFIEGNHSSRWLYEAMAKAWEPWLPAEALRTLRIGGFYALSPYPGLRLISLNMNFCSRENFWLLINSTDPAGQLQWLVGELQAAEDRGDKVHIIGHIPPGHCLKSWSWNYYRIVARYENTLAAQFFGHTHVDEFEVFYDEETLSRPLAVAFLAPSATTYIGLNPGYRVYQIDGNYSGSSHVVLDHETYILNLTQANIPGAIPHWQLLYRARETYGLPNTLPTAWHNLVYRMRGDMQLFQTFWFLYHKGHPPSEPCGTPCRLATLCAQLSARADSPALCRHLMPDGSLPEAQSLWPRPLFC
The assay is described as follows: co-IP; naive CD4+ T-cell lysates in RIPA buffer (1 mM EDTA, 50 mM Tris-HCl pH 7.4, 150 mM NaCl, 1% NP-40, 0.25% sodium deoxycholate); mouse anti-human ASM antibody 3 h at 4 °C, Protein G-Sepharose 4B; blots for CD3 and CD28; mouse IgG or beads only as capture controls.

These are yes or no findings as the source states them, for the method shown. Binding seen in cells or lysates may run through a third protein. Binding calls can cover weak binding; strength is not graded here.

This passage reports binding results from PMC4650726.

Consider CD3 (receptor), for which the binding entry was “binds”.
